Some of the results follow.
molecular target: OsWRKY34 (Oryza sativa, UniProt Q0JBA9 1-250); assay: protein-binding microarray (RPBM); PBS, 2% BSA, 51.3 ng/ul salmon testes DNA, 50 uM zinc acetate, 200 nM TF, 25 C, 1 h; high values mean tight binding; settings: protein: recombinant; tags: N-terminal polyhistidine and DsRed monomer fusion (pET32a); label: CyDye5-dUTP incorporated in the synthesized complementary strand; 3' TTTTT single-stranded linker to array surface; dsDNA, one strand shown
How it was run: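 Using Ni–NTA, transcription factors fused N-terminally to polyhistidine and DsRed were purified after expression in E. coli BL21-CodonPlus. These were incubated at 200 nM with a blocked, double-stranded custom Agilent array for 1 h at 25 °C in a buffer containing 50 µM zinc acetate, and the array was washed. The binding signal is per-feature fluorescence intensity (arbitrary units) on an Axon 4000B scanner.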

Protein sequences, listed by entry. Tags and fused reporters are not part of them.
UniProt Q0JBA9, entry or part of it: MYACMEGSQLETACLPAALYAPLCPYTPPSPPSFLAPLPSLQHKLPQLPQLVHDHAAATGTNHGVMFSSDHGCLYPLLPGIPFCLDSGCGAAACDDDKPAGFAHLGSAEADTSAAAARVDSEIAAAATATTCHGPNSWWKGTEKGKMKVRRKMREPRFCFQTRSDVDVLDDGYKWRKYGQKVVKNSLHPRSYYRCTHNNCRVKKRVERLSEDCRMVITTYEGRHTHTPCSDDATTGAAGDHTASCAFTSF

First: ATGCCCCTGGCCCTTCTGCTGCCCCGTCCATTTCCCGTCCCGGAGTCACCTAGTGCAG
Second: ACTTTTCTTTGAGTCTCTCTCTCATCCAATTCTTGTGTTTCGGAGTCACCTAGTGCAG
The binding signal of the first is lower: 8060 fluorescence intensity (a.u.) for the first, 10200 fluorescence intensity (a.u.) for the second.

Compared with “ACCTCCCTGATGGCCACCTTCGCTTCGTTCTTAAGCTCTCCGGAGTCACCTAGTGCAG”, “GGTGCGCTCCTCCCCACCTGCGCCATCGCCAACGCCAACGCGGAGTCACCTAGTGCAG” is higher in binding signal: 9480 fluorescence intensity (a.u.) for the first, 9990 fluorescence intensity (a.u.) for the second.

First: ATATCATAATTTGAATCGTCATGTATTTGTGTGCACGTACCGGAGTCACCTAGTGCAG
Second: ACTACTTCCTCTGTTTCTAAATATTTGACGACGTTGATTTCGGAGTCACCTAGTGCAG
The binding signal of the first is higher: 8080 fluorescence intensity (a.u.) for the first, 8050 fluorescence intensity (a.u.) for the second.

Compared with “TAATGGCTCACCTCGTTTTGCGTATTTTCCCAATCTTCTCCGGAGTCACCTAGTGCAG”, “GATTCTTTCTCTCTCTTTCAGATTCGTTGTCTCACTGACACGGAGTCACCTAGTGCAG” is lower in binding signal: 11100 fluorescence intensity (a.u.) for the first, 8290 fluorescence intensity (a.u.) for the second.

Going from “CTTGTGGCATCATTTTTGCAGTTTCGTCCATGTCCGACGTCGGAGTCACCTAGTGCAG” to “ACTGATGAAATGGCGGTATTTTTATAGGCGGGGTGAGTGGCGGAGTCACCTAGTGCAG”, the binding signal rises from 9070 fluorescence intensity (a.u.) to 9560 fluorescence intensity (a.u.).

Going from “TTCTTCTGCTCTTTCTTCTTCCTTTGGCACTGGAGGCGGCCGGAGTCACCTAGTGCAG” to “GTGCACCACCTGCACCGCCTCGTGCTCACGAAACCCGATCCGGAGTCACCTAGTGCAG”, the binding signal falls from 11300 fluorescence intensity (a.u.) to 8230 fluorescence intensity (a.u.).

First: ACACGTGTGCATGCAACTATATGGTCGTTTTATTTTATTTCGGAGTCACCTAGTGCAG
Second: CTATTTTATGTTTTTTACATGCGTTTTACAGGGTTGCTTACGGAGTCACCTAGTGCAG
The binding signal of the first is higher: 10100 fluorescence intensity (a.u.) for the first, 8720 fluorescence intensity (a.u.) for the second.

Compared with “GCATTCCTTGCTGTTGCATACCCTTCTCACCCCTTGCCTTCGGAGTCACCTAGTGCAG”, “CGACGCATGGGCCAACTCACTGTCCGCCATCCACCAGTTGCGGAGTCACCTAGTGCAG” is lower in binding signal: 9460 fluorescence intensity (a.u.) for the first, 8120 fluorescence intensity (a.u.) for the second.

Compared with “GCCCGCCAGTCAAACCTCGAGGGAGCTTTGACCAGTCAACCGGAGTCACCTAGTGCAG”, “CCCACTAACTTATGGCTTTTCCCATCCGTGCTATATCCCTCGGAGTCACCTAGTGCAG” is lower in binding signal: 10400 fluorescence intensity (a.u.) for the first, 9270 fluorescence intensity (a.u.) for the second.

Compared with “GGCCGAGCCGCCCGTTTCGTTCTATCAGACTCTTCTTTATCGGAGTCACCTAGTGCAG”, “GAAGTGATGAATATATTAAACTGGTTTGGCTATTATTTCCCGGAGTCACCTAGTGCAG” is lower in binding signal: 12200 fluorescence intensity (a.u.) for the first, 8360 fluorescence intensity (a.u.) for the second.

Going from “GCATTTTTGAACTTCGACACAGTCTTCAATATACTACTTTCGGAGTCACCTAGTGCAG” to “AATTTGCCTAATCTCATTCGAAACTGTTCAAATTTCAATTCGGAGTCACCTAGTGCAG”, the binding signal falls from 9230 fluorescence intensity (a.u.) to 8200 fluorescence intensity (a.u.).

Going from “TCCCCTTTTGTTGACTTACCAGAATTCGCCTTATTCTGTTCGGAGTCACCTAGTGCAG” to “TGCCTCTTGTCTAATTCCTATGGAACACTTCATTTATTTACGGAGTCACCTAGTGCAG”, the binding signal falls from 14900 fluorescence intensity (a.u.) to 11400 fluorescence intensity (a.u.).

First: AATGTGTGAAACTTTCCCTTGTTCCTAGTCCATTTCACTACGGAGTCACCTAGTGCAG
Second: TCTGTTTTCGTCCATAAGTGCTACAGTTTGTGATTTGTCTCGGAGTCACCTAGTGCAG
The binding signal of the first is higher: 9460 fluorescence intensity (a.u.) for the first, 8280 fluorescence intensity (a.u.) for the second.

Compared with “GTATCATTTTTGTGCGGTTTCCTTTTTTTTGGCGCAATATCGGAGTCACCTAGTGCAG”, “GGGCCACGATGGTGTTGTACCTCGCCGTCTTCCTGCTCGGCGGAGTCACCTAGTGCAG” is higher in binding signal: 8070 fluorescence intensity (a.u.) for the first, 8100 fluorescence intensity (a.u.) for the second.

First: TCCTCATCGCATCGCATCGCATCACCTCGCACGGGCGCGCCGGAGTCACCTAGTGCAG
Second: CCAAAGCCTGCACACATAACATAAGCTCCGGCATCATCTCCGGAGTCACCTAGTGCAG
The binding signal of the first is lower: 9030 fluorescence intensity (a.u.) for the first, 9310 fluorescence intensity (a.u.) for the second.

Going from “AGACCGCACGTGACACTGCAGCTGGGACCCACCATTTCCCCGGAGTCACCTAGTGCAG” to “TTAGGGTCTTTTATGTAGTAGTATCTGTTATCATTTCTGGCGGAGTCACCTAGTGCAG”, the binding signal falls from 9350 fluorescence intensity (a.u.) to 8850 fluorescence intensity (a.u.).

Compared with “TCTTGGGCCTTGGTATTGTTGCTCCAAGATCTTTGCCACTCGGAGTCACCTAGTGCAG”, “TTACCCCATTAATCACTTTTTGTTGAAATTTCTCTCTATTCGGAGTCACCTAGTGCAG” is higher in binding signal: 9210 fluorescence intensity (a.u.) for the first, 9420 fluorescence intensity (a.u.) for the second.

First: GTCCATCCGCGCGCACGATCTCACCACCACACGATTGAGTCGGAGTCACCTAGTGCAG
Second: GCACGTTCCCGTCTAACCCTGCTATCTTTTCACTCATATCCGGAGTCACCTAGTGCAG
The binding signal of the first is lower: 10300 fluorescence intensity (a.u.) for the first, 12600 fluorescence intensity (a.u.) for the second.

Compared with “CTTGCGCCCTGGGGCCCCGCGCGCCGCCGACACCCTCCTCCGGAGTCACCTAGTGCAG”, “AGCTGATGTTTCTCATTAACTTTACGCTACTGCTACCGCACGGAGTCACCTAGTGCAG” is higher in binding signal: 8500 fluorescence intensity (a.u.) for the first, 9010 fluorescence intensity (a.u.) for the second.

First: GGTCTTTTTTCATGTGTATTCTTGTTGGATCTTCTGATATCGGAGTCACCTAGTGCAG
Second: GAGCGCGGAGCCAACCTAATTTTTATCTCCATCAGTTTCACGGAGTCACCTAGTGCAG
The binding signal of the first is lower: 8130 fluorescence intensity (a.u.) for the first, 8610 fluorescence intensity (a.u.) for the second.

Compared with “CCACTTGTCACCGTGCTTCTCCAATCTCTATCATCGTGCGCGGAGTCACCTAGTGCAG”, “GAGTCGTTGTGTGCGTGTGTGGGAAAGGAGAGGGAGAAAGCGGAGTCACCTAGTGCAG” is lower in binding signal: 9170 fluorescence intensity (a.u.) for the first, 8040 fluorescence intensity (a.u.) for the second.

From article PMC7819943, “Rice protein-binding microarrays: a tool to detect cis-acting elements near promoter regions in rice”
